Source: paper PMC7862700
The entries are a selection whose mix differs from that of the whole data set. At the low end of the ranking, values are background and their order means little.

Sequences of proteins named here, by UniProt entry; tags and fusion partners are left off. A change or cut given only in a name is not applied to a line headed by its entry.
UniProt Q01892: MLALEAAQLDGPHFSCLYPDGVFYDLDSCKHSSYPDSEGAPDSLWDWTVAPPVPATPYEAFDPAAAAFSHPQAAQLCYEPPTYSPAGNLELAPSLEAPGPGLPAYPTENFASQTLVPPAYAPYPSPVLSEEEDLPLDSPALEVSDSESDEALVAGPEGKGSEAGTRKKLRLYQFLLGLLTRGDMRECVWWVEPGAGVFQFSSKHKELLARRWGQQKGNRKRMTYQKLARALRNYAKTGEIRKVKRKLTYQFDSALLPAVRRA
UniProt P41161: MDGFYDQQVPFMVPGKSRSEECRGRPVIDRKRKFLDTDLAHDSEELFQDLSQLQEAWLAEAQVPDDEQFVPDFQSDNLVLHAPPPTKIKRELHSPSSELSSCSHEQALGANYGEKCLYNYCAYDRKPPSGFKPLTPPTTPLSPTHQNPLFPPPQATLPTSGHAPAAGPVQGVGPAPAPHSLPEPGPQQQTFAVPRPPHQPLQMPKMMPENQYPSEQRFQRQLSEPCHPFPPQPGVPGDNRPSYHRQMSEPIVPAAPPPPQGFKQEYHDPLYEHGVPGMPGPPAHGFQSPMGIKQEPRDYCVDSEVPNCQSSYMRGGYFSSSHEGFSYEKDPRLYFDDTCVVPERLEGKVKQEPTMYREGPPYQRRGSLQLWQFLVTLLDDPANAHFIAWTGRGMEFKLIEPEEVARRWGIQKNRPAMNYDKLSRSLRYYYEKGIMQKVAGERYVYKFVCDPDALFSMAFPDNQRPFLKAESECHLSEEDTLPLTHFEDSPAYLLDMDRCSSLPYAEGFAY
UniProt Q99607: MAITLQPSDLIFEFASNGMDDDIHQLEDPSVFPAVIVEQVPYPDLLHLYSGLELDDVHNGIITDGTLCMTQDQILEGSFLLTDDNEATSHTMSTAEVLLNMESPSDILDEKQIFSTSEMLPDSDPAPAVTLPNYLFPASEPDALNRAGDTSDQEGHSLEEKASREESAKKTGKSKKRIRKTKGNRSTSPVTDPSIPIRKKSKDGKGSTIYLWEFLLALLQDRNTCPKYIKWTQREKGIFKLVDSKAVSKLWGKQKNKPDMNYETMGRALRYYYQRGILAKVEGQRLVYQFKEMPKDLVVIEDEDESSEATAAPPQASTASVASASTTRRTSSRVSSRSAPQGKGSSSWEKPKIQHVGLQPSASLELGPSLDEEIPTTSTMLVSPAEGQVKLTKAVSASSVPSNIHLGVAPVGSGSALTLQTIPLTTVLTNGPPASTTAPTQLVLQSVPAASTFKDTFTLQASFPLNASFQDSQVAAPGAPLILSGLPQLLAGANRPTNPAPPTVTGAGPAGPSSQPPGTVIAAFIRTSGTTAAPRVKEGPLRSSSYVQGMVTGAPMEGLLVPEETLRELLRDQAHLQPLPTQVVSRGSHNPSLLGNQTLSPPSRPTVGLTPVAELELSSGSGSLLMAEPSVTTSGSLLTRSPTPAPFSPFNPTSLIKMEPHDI

Columns and labels:
Test in all cases: DAPPL (digital affinity profiling via proximity ligation, sequencing)
Conditions in all cases: 10 mM Tris-HCl pH 7.5, 50 mM NaCl, 1 mM DTT, 4% glycerol, room temperature, 30 min; GST-TFs on glutathione beads, 16-mer random dsDNA library, 0.1% …; high values mean tight binding; double strand, one strand shown; scale: fold enrichment (6-mer frequency, TF over GST control)
FLI1 = target: T1, FLI1 (UniProt Q01543)
T1 sequence: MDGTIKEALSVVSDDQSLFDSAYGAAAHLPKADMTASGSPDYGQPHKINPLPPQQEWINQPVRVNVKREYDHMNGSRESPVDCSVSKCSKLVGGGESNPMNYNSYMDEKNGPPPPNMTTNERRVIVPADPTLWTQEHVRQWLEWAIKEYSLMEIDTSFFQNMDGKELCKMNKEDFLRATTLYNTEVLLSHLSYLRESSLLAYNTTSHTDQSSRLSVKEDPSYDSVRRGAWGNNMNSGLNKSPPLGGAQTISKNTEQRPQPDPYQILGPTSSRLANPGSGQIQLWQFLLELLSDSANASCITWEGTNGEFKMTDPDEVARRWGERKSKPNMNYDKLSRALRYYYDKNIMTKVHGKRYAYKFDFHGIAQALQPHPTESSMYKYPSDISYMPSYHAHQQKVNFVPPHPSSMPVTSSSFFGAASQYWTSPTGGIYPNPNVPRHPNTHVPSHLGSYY

EHF = target: T2, EHF (UniProt Q9NZC4)
T2 sequence: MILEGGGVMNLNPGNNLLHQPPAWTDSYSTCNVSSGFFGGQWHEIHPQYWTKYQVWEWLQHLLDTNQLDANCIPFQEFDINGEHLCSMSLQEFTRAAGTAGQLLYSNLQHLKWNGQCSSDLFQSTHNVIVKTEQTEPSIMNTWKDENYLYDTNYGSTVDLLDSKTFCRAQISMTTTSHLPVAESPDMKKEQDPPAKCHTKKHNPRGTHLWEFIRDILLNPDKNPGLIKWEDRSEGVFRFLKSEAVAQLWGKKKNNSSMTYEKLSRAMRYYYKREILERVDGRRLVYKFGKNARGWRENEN

SPIB = SPIB (UniProt Q01892)
ETV5 = ETV5 (UniProt P41161)
ELF4 = ELF4 (UniProt Q99607)
ETV2 = target: T3, ETV2 (UniProt O00321)
T3 sequence: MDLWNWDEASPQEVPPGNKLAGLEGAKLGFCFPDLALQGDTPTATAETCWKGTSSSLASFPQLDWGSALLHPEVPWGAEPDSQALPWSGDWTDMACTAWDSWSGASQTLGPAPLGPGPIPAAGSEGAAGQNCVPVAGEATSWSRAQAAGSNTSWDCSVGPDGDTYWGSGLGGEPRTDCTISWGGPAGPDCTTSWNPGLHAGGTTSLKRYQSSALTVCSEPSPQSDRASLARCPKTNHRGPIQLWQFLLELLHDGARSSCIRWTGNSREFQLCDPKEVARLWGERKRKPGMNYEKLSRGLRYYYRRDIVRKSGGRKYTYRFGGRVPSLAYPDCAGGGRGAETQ

ETV3L = target: T4, ETV3L (UniProt Q6ZN32)
T4 sequence: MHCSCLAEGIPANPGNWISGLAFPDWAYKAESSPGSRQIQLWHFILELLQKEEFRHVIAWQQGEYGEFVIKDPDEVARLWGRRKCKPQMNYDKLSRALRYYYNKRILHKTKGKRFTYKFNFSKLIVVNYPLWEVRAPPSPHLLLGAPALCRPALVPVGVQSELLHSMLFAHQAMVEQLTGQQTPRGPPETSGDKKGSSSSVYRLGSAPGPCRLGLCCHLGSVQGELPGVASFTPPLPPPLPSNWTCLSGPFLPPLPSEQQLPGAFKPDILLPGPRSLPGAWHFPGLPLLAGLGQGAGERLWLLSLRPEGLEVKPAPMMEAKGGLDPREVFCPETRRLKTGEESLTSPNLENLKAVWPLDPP

Sequence | binding signal (FLI1) | binding signal (EHF) | binding signal (SPIB) | binding signal (ETV5) | binding signal (ELF4) | binding signal (ETV2) | binding signal (ETV3L)
GAGTAG | 0.522 | 0.493 | 0.541 | 0.471 | 0.462 | 0.471 | 0.545
AGACGC | 0.708 | 0.662 | 0.641 | 0.679 | 0.705 | 0.693 | 0.717
TGAGGG | 0.595 | 0.635 | 0.666 | 0.634 | 0.62 | 0.624 | 0.658
ACCATG | 0.85 | 0.922 | 0.844 | 0.865 | 0.846 | 0.935 | 0.896
GAGGGA | 0.472 | 0.497 | 0.48 | 0.504 | 0.499 | 0.475 | 0.526
AGGCCT | 0.886 | 0.947 | 0.941 | 0.943 | 0.92 | 1.01 | 0.956
GGTACG | 0.792 | 0.854 | 0.862 | 0.784 | 0.833 | 0.806 | 0.864
TCGGCC | 0.794 | 0.759 | 0.763 | 0.703 | 0.844 | 0.79 | 0.771
CGAGGG | 0.711 | 0.651 | 0.72 | 0.662 | 0.693 | 0.7 | 0.673
GGGTGT | 0.692 | 0.775 | 0.733 | 0.746 | 0.818 | 0.742 | 0.746
AGTCGC | 0.492 | 0.478 | 0.489 | 0.508 | 0.518 | 0.539 | 0.481
CAGGTC | 0.69 | 0.605 | 0.693 | 0.658 | 0.648 | 0.695 | 0.722
GGGGTC | 0.618 | 0.655 | 0.615 | 0.625 | 0.641 | 0.677 | 0.687
GCTGGA | 0.828 | 0.768 | 0.832 | 0.784 | 0.837 | 0.895 | 0.932
TCGGTA | 0.577 | 0.597 | 0.592 | 0.584 | 0.628 | 0.566 | 0.607
CCGGGC | 0.889 | 0.776 | 0.953 | 0.816 | 0.791 | 0.83 | 0.727
AGTTAG | 0.776 | 0.86 | 0.834 | 0.811 | 0.833 | 0.78 | 0.786
GTCGGA | 0.166 | 0.184 | 0.17 | 0.165 | 0.154 | 0.154 | 0.173
GGCTGG | 0.793 | 0.712 | 0.758 | 0.698 | 0.82 | 0.762 | 0.789
ATGTCG | 0.587 | 0.634 | 0.651 | 0.61 | 0.648 | 0.572 | 0.579

Sequence | binding signal (FLI1) | binding signal (EHF) | binding signal (SPIB) | binding signal (ETV5) | binding signal (ELF4) | binding signal (ETV2) | binding signal (ETV3L)
GCCACG | 0.944 | 0.949 | 0.926 | 0.879 | 0.944 | 0.827 | 0.993
GTAAGA | 0.751 | 0.792 | 0.771 | 0.812 | 0.813 | 0.889 | 0.779
GGGTAA | 0.871 | 0.895 | 0.822 | 0.874 | 0.891 | 0.8 | 0.836
GAGATG | 0.655 | 0.657 | 0.658 | 0.743 | 0.657 | 0.729 | 0.649
ACCAGC | 0.833 | 0.838 | 0.86 | 0.875 | 0.817 | 0.866 | 0.936
AGGAGT | 0.349 | 0.407 | 0.418 | 0.391 | 0.351 | 0.358 | 0.363
CGGGAA | 0.755 | 0.747 | 0.799 | 0.787 | 0.736 | 0.688 | 0.725
AGAGAC | 0.502 | 0.508 | 0.508 | 0.523 | 0.547 | 0.508 | 0.491
CGGCCA | 0.804 | 0.774 | 0.793 | 0.816 | 0.91 | 0.774 | 0.848
AGCAGT | 0.74 | 0.737 | 0.672 | 0.677 | 0.733 | 0.701 | 0.755
ACAGCG | 0.805 | 0.837 | 0.871 | 0.812 | 0.846 | 0.839 | 0.834
ATCGGA | 0.43 | 0.413 | 0.451 | 0.43 | 0.421 | 0.411 | 0.453
CGCGAG | 0.531 | 0.502 | 0.472 | 0.525 | 0.557 | 0.496 | 0.525
AGAGGC | 0.751 | 0.662 | 0.725 | 0.652 | 0.687 | 0.789 | 0.691
AGAAAG | 0.872 | 0.849 | 0.846 | 0.853 | 0.849 | 0.862 | 0.832
GATAGA | 0.807 | 0.791 | 0.8 | 0.806 | 0.796 | 0.758 | 0.779
ATCGTA | 0.878 | 0.922 | 0.846 | 0.919 | 0.884 | 0.846 | 0.833
GGCCGT | 0.43 | 0.404 | 0.376 | 0.365 | 0.435 | 0.391 | 0.402
GCGGAG | 0.24 | 0.257 | 0.249 | 0.26 | 0.244 | 0.273 | 0.257
TGAGAT | 0.687 | 0.638 | 0.631 | 0.701 | 0.659 | 0.683 | 0.715

Shown tab-delimited: entries from further up
Sequence	binding signal (FLI1)	binding signal (EHF)	binding signal (SPIB)	binding signal (ETV5)	binding signal (ELF4)	binding signal (ETV2)	binding signal (ETV3L)
ACAGCG	0.805	0.837	0.871	0.812	0.846	0.839	0.834
ATCGGA	0.43	0.413	0.451	0.43	0.421	0.411	0.453
CGCGAG	0.531	0.502	0.472	0.525	0.557	0.496	0.525
AGAGGC	0.751	0.662	0.725	0.652	0.687	0.789	0.691

Further entries:

Sequence | binding signal (FLI1) | binding signal (EHF) | binding signal (SPIB) | binding signal (ETV5) | binding signal (ELF4) | binding signal (ETV2) | binding signal (ETV3L)
TGTCGT | 0.842 | 0.859 | 0.812 | 0.824 | 0.768 | 0.926 | 0.808
CCAGGC | 0.407 | 0.418 | 0.384 | 0.4 | 0.44 | 0.456 | 0.428
CCGTTG | 0.979 | 0.828 | 0.887 | 0.869 | 0.887 | 0.816 | 0.916
AGTAGT | 0.97 | 0.98 | 0.911 | 0.886 | 0.89 | 0.91 | 0.929
TGAAGT | 0.79 | 0.779 | 0.76 | 0.707 | 0.784 | 0.788 | 0.736
GCCGGT | 0.668 | 0.679 | 0.648 | 0.664 | 0.633 | 0.652 | 0.604
CAGTCG | 0.181 | 0.163 | 0.174 | 0.166 | 0.179 | 0.171 | 0.173
CGGTCA | 0.798 | 0.816 | 0.91 | 0.764 | 0.806 | 0.94 | 0.851
CACCAG | 0.76 | 0.734 | 0.733 | 0.733 | 0.786 | 0.722 | 0.785
AACGGG | 0.705 | 0.731 | 0.699 | 0.707 | 0.668 | 0.805 | 0.724
AGAGTC | 0.433 | 0.414 | 0.394 | 0.437 | 0.453 | 0.445 | 0.475
CAGTTA | 0.755 | 0.764 | 0.738 | 0.762 | 0.776 | 0.788 | 0.676
GTAACG | 0.967 | 0.953 | 0.915 | 0.907 | 0.897 | 1.08 | 0.889
GGGGGC | 0.594 | 0.626 | 0.637 | 0.621 | 0.637 | 0.701 | 0.693
TTGTGA | 0.822 | 0.762 | 0.829 | 0.74 | 0.85 | 0.78 | 0.777
CAGCGG | 0.445 | 0.449 | 0.458 | 0.435 | 0.481 | 0.506 | 0.464
TCAGGC | 0.802 | 0.669 | 0.727 | 0.713 | 0.695 | 0.66 | 0.735
TCGGGC | 0.497 | 0.503 | 0.451 | 0.476 | 0.489 | 0.54 | 0.528
AGAGCG | 0.445 | 0.439 | 0.412 | 0.43 | 0.459 | 0.421 | 0.454
ACAGGG | 0.819 | 0.802 | 0.809 | 0.764 | 0.863 | 0.688 | 0.764
